## Drug screen on melanoma cell lines: cell count

All values are for the listed drug together with PD173074 (500 nM): CCN(CC)CCCCNc1ncc2cc(-c3cc(OC)cc(OC)c3)c(NC(=O)NC(C)(C)C)nc2n1

Drug key:
sunitinib: CCN(CC)CCNC(=O)c1c(C)[nH]c(/C=C2\C(=O)Nc3ccc(F)cc32)c1C at 2000 nM
gemcitabine: Nc1ccn([C@@H]2O[C@H](CO)[C@@H](O)C2(F)F)c(=O)n1 at 2 nM
SNS-314: O=C(Nc1cccc(Cl)c1)Nc1ncc(CCNc2ncnc3ccsc23)s1 at 4 nM
embelin: CCCCCCCCCCCC1=C(O)C(=O)C=C(O)C1=O at 6000 nM
TCS401: O=C(O)C(=O)Nc1sc2c(c1C(=O)O)CCNC2 at 8330 nM
T0901317: O=S(=O)(c1ccccc1)N(CC(F)(F)F)c1ccc(C(O)(C(F)(F)F)C(F)(F)F)cc1 at 7000 nM
GW2580: COc1ccc(COc2ccc(Cc3cnc(N)nc3N)cc2OC)cc1 at 5000 nM
GW0742: Cc1cc(SCc2sc(-c3ccc(C(F)(F)F)c(F)c3)nc2C)ccc1OCC(=O)O at 10000 nM
crizotinib: C[C@@H](Oc1cc(-c2cnn(C3CCNCC3)c2)cnc1N)c1c(Cl)ccc(F)c1Cl at 1000 nM
lapatinib: CS(=O)(=O)CCNCc1ccc(-c2ccc3ncnc(Nc4ccc(OCc5cccc(F)c5)c(Cl)c4)c3c2)o1 at 4000 nM
decitabine: Nc1ncn([C@H]2C[C@H](O)[C@@H](CO)O2)c(=O)n1 at 500 nM
GSK0660: COC(=O)c1sccc1S(=O)(=O)Nc1ccc(Nc2ccccc2)cc1OC at 5000 nM
cisplatin: N.N.[Cl][Pt][Cl] at 8000 nM
veliparib: C[C@]1(c2nc3c(C(N)=O)cccc3[nH]2)CCCN1 at 7000 nM
OSU-03012: NCC(=O)Nc1ccc(-n2nc(C(F)(F)F)cc2-c2ccc3c(ccc4ccccc43)c2)cc1 at 5000 nM

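The test systems are human melanoma cell lines, treated with a pair of drugs for 72 h and then stained and imaged. Values are the number of DAPI-stained nuclei as a percentage of the DMSO control: 100 is no effect, lower means fewer cells. Every drug was used at one fixed concentration, the higher of two screened. These are primary screening values without error estimates.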
Only some of the drugs and lines screened are listed, without regard to their results.
A dash means that no value is listed here.

| # | Partner | IPC-298 | WM451Lu | G-361 | A2058 | COLO 829 | WM3619 |
|---|---|---|---|---|---|---|---|
| 1 | decitabine | - | 72.0 | - | - | 68.2 | 115 |
| 2 | cisplatin | - | 89.8 | - | - | 68.3 | 95.7 |
| 3 | embelin | 79.4 | - | 83.7 | 95.4 | 88.6 | - |
| 4 | OSU-03012 | - | - | - | - | 77.5 | - |
| 5 | veliparib | - | 114 | - | - | 107 | 67.5 |
| 6 | crizotinib | - | 99.1 | - | - | 84.6 | 65.0 |
| 7 | GW2580 | 107 | - | 93.4 | 111 | 88.4 | - |
| 8 | lapatinib | - | 72.8 | - | - | 96.6 | 61.5 |
| 9 | sunitinib | - | 68.2 | - | - | 103 | 91.1 |
| 10 | gemcitabine | - | 42.7 | - | - | 45.4 | 43.5 |
| 11 | GW0742 | - | 99.4 | - | - | 87.3 | 83.8 |
| 12 | T0901317 | 85.8 | - | 66.2 | 108 | 113 | - |
| 13 | SNS-314 | - | 58.7 | - | - | 83.0 | 57.3 |
| 14 | GSK0660 | 96.1 | - | 99.1 | 87.6 | 117 | - |
| 15 | TCS401 | - | - | - | 130 | - | - |

Values as published with doi:10.1371/journal.pone.0140310, rounded.